Results are given in words; binding and its absence hold for the method and conditions named. Binding seen in cells or lysates may run through a third protein. A yes stands for co-enrichment or nearness to the bait. Other partners may have been found.
T1: Cep78 (endogenous, mouse testis) (mouse (endogenous in testis)) (UniProt Q6IRU7)
T1 sequence: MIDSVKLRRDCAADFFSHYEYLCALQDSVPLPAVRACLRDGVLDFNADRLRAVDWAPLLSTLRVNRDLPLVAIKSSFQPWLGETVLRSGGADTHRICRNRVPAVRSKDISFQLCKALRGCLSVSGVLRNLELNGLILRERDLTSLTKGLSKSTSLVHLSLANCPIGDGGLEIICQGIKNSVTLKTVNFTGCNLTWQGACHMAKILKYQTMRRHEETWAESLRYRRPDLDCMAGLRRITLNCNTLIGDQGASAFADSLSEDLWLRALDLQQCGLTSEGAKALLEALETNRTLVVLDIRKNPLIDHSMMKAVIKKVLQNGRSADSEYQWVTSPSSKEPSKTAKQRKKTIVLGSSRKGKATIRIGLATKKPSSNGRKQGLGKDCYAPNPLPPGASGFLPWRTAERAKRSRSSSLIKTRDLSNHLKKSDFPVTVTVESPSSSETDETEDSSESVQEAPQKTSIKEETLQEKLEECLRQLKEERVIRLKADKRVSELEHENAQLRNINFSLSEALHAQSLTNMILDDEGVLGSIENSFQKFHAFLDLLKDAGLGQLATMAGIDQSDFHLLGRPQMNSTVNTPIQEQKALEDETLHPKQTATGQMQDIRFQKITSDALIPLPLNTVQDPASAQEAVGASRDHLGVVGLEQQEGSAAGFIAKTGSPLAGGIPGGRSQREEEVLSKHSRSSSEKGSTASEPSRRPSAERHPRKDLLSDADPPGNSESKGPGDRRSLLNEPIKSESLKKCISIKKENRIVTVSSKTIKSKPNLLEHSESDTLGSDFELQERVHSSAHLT

Amino acid sequences for entries named in this document (tags omitted).
UniProt Q61025: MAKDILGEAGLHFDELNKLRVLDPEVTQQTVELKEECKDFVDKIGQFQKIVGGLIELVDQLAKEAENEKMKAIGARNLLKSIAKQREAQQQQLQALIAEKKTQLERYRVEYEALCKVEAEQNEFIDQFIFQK


Target: T1, Cep78 (endogenous, mouse testis) (mouse (endogenous in testis))
Assay: affinity purification with mass spectrometry

Row | binding | Molecule
1 | binds | Ift20 (endogenous, mouse testis) (from UniProt Q61025 1-132)
2 | binds | Ttc21a (endogenous, mouse testis) (protein, UniProt Q8C0S4 1-1314) MSSDDSSLMASIIYYSQEKYFHHVLQAANVGLERYSSDPALQFFRAYGILGEDHIHDAISELEGIQSHPDTSLCAVIALLSAHKSCDTIDIEAVQELESSLKEIRRSASSTALYYASLFLWFMGHHDKAREYVDHMLKVSSGSKEGYVLKGWVDLTSSKPHVVKKSIKYLEQGTQDTKDVLGLMGKATYFMTQQNFSGALEVANQVTLACSNFLPALVLKMKLFLARQDWDQTIETGQRILEKDENNIDAWQILAVHELVKEGNTDRAADRVRNLIKALETGEPHNPNLHLKKILVISRLCGRHQVVHRLVSGFLERIFMATPSCALVATELGYLFILHQQVKEACLWYKEAMKLEENRLAALAGSIWCQILQGQLEEAAHQLEFLKEVQQSLGKSELLVFLQALVAAKKQRLEQEATALLKEAVEVHFSSMQGLALSPEYFEKLDPLFLVCIAKEYLHFCPKQPRSPGQLVSPLLKQVAMILSPVVKVAPAMMEPLYVTAQVKFLSGELENAQSTLQRCLELDPTFVDAHLLMSQIYLAQGNFAMCSHCLELGVSHNFQVRDHPLYHFIKARALNKTGDYAEAIKTLKMIIKVPTSKAEEGRKSQSPSVRPSERASILLELVEALRLNGELHEATKIMQDAINEFSGTPEEMRITVANVDLALSKGNVDLALNMLRGITPKQPCYTEAKEKMASIYLHTRKDVRLYIGCYVELCEHLPGPHSSLLLGDAFMNIQEPEKALEVYDEAYRKNPHDASLVSRIGQAYVKTHQYAKAINYYEAAQKISGQDFLCCELAELLLKLKKYHKAEKVLKQALERDSGVKDIPSMINEVKCLLLLAKVYKSHKKEEVMETLNLALDLQSRILKRVPLEQSEMIPFQNQLAASICIQIGEHHLAEKDYDSALKSYKDALAYSPTDSKVVLELAHLYLLLGQLDLCEQRCAPLLEMEQTHERAAVMLADLMFRRQNYETAINLYHQVLEKAPDNFLVLNKLVDLLRRSGKLEEAPAFFELAKKVSSRVPLEPGFNYCQGIYFWHIGQPNEALRFLNKARKDSTWGQLATCYMVQICLNPDNEIVGGEAFESLVGDSNSASRKESQQHGVRTAEKLLREFYPHSESGQTQLRLLQNLCLLATREKANVEVALGAFIEMAQAEKDSIPALLAMAQAYILLKQVPKARTQLKRLAKVPWTVDEAEDLEKSWLLLADIYCQGGKFDLALELLRRCLQYNKSCCRAYEYMGFIMEKEQSYKDAATNYELAWKYSHQANPAIGFKLAFNYLKDKKFVDAIEVCHSVLTEHPKYPKIREEILEKAQGSLRP

From doi:10.1101/2022.01.25.477668
